Test results taken from PubChem BioAssay AID1508600 (Functional Genomics Laboratory (NCATS/FGL), 2020).
Hit rate of the full screen: of about 53,000 sequences, about 3,700 (7%) were called active.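 How the source made its calls: active means gene knockdowns whose robust z-score for IL-1 alpha signal is at least 2 or at most -2, so actives lie on both sides; inactive means the rest.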 This is one part of the list.

Assay: Components of the Cytosolic LPS Sensing Pathway: Gene Identification via Genome-wide siRNA Screen;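 further: robust z of the log signal after scaling to non-targeting control siRNA wells of the plate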
Conditions: RAW264.7 macrophages, IL-1a HTRF, actives lie on both sides, screened at 100 nM (by protocol), cells primed 5 h with Pam3CSK4 first
Procedure, shortened: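 Three distinct siRNAs per gene were tested singly at 100 nM in RAW264.7 macrophages. Following Pam3CSK4 priming and 24 hour LipidA transfection, IL-1a secretion was read by HTRF.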

z-score, active:
GGUGUCCUUUCAAGUUGAUTT against Spg11 2.15
GCCUUACUACUACAACAACTT against Prpf40b 2.08
GGACAUUCUCUACCGAAUATT against Acsm1 2.04
GCAUUGUGCUGAUGUGCGGTT against Ap1ar 3.01
GGAGCUGUAUGAGAUAGAGTT against Zfp566 4.15
GGUACAUCUUAGAGGCCAATT against Epo 2.66

z-score, inactive:
CGUGUUAGAAUAAAAACACTT against Acaa2 0.437
GCUUUGUGUGUUGGUCUCGTT against Aup1 -0.498
GGAUUUAUUAGCCUACCUUTT against Ctnna2 1.26
GGGUUUGCUUUUGUUGAGUTT against Ppie -1.77
GCCUUACCAUACCAUGGAGTT against Vangl2 -0.546
CCUUAUCUUGGUAUACAAUTT against Eif3a 0.985
CCAGAUAGGUAAAAAACAATT against Acta2 -0.562
GGAUCCUCACCAAGAUUACTT against Mrps22 0.391
GGAAAAUCCCUUGGUGAAATT against Slc5a11 -1.06
GGCAUCUCUUCCAAGUUGGTT against Mzt1 1.69
GGUUUCCAGUGCAUACUUUTT against Taf1b 0.655
GCGAUACUCCUAAAACAUATT against Btnl9 0.831
CGUGUGUUUUACCCUAAAATT against Zfp947 0.404
GGAUAUGAAAGUUCUUGAUTT against Akr1c21 1.44
GGUACUGGAACAAAAGAAATT against Stk38l -0.419
CGGAGUUAACAAGAAGUGATT against Loxl4 -0.255
GGAAGAAGUAGCUAAAAACTT against Entpd4 0.488
CGACAACCACUUCAACUAUTT against Chn2 1.34
GGAGAAAGCAGCAAGUACATT against Olig3 -0.244
GCCAGUUUGUUACACGCAATT against Fam135a 1.28
GGCUGAAAUAAAACAAGAATT against Use1 -0.778
GGUCAAUGUACUACUUCUUTT against Olfr659 -0.154
UCCAUUUAGUUGGUGGAGUTT against Olfr1303 0.817
GGAGCUAGGCUGCUCUAUUTT against Serpina9 0.0986
CCGGGAAAGAACUCCUAAGTT against Wnt8b 0.0331
GAAUCCUACGGUUGAAUAUTT against Prmt3 -0.432
GGCUAAAGUCAUCUUCUGGTT against Il20ra -0.82
GCACUGAACUUUGUCGAUUTT against Fam122a 0.325
GGUUCUGUGCAAUUUUUAGTT against Dgcr2 0.643
GGACGGAUCUUGUAAAUACTT against Ctsl -1.14
GCAUCGCUAAGUCCGUCUUTT against Aqp4 -0.1
GGCUUCAUUUUAAUAGUGATT against Zdhhc21 0.00141
GGGAAACUCUGCAUGAGUATT against Tenm1 -0.137
GGGUUUUGUUUUCCUUCUUTT against Usp39 0.0801
GGGCUGCUGAUACAAACAATT against Trdmt1 0.0633
GGUUUGCAUUGUCGGCCAUTT against Gls2 -0.8
CGAUCCUUCUGUCCUGGAUTT against Tmc8 1.94
CCUGGUAGUCAGUUUUUGUTT against Lactb 0.268
GGUUGGAGAUCUCAUCUAUTT against Exosc3 0.699
GCUUCUGAUAGAUCAUAAGTT against Aoc3 -0.276
GAAGUGUGCCAAGGACUGUTT against Mt3 0.603
CCUCAAGGCAGUUCAUAUUTT against Zfp790 -0.334
GGUGGUUUGAAAAAAGUCATT against Mycbpap -1.63
GGCAGAGAGCAGAGACAUCTT against Lpcat1 0.405
GGCUGUCAUUGAGUUUGAGTT against Klrc2 1.18
CCUCUAUCGAGGUUCGUUCTT against Tmem132a -0.972
GGGAUAGGAAACAUACCAATT against Ptk6 -0.686
CCUACGCUAUGCCAUAGACTT against Apobec3 0.456
GGGUGUACAUUGAAAUUAATT against Epha4 -0.717
CCCUGGCAAAUAUCACUGCTT against Dapk2 0.617
CCACUAUCAUUAUUUAUGCTT against Xkrx 0.617
CCUUCUAAACACUUGACUUTT against Ugt2b5 0.106
GGAAUUUGUCAAGUUGUAGTT against Pou4f2 -0.442
GGAAUAAGAAGCCACUCUATT against Fam174a -0.71
GGAGAAAGGCAUCUUCAAATT against Spdef 0.0302
GGACUGUGUGCAACUGAACTT against Camkk1 -1.42
GGGAUAUGAAUGGAUAUUCTT against Twf1 0.266
CGUAUAACUAACCUGUUGATT against Vmn1r52 1.23
CCCUCUUGCAGUCAGCUGATT against Rpl41 0.0843
CGGAAGACCCUGAGACUAUTT against Doc2g 0.793
CCACAAUAAUGAGCAGCAGTT against Olfr792 -0.754
GCACCAGGCCACAAUUAAUTT against Luzp2 0.279
CGGCCUGGUACCAUCUUAUTT against Antxr2 0.568
GGGAUACAGGACUAAACGATT against Fgf16 0.423
GGAGUCCUCUCUUCACUUCTT against Serpinb9 -0.768
GCAAUUCUUGGAGUUCAAATT against Ndc1 -0.149
GGAUAUUGUGGUUUUUAGCTT against Pdc -0.145
GGUUGUAAAAGACCAUUAATT against St3gal4 0.102
GCUAUUGAGAAACCACUUATT against Rasef -0.276
GCGGACGGAGGAACUAAUUTT against Arhgef19 0.307
GGAUGUGACAUGAAUCCUGTT against Ankle1 -0.49
GGCAAAGGAUCUCAACGGATT against Msh6 -0.702
CGUAUGGAGAUACCACACATT against Hpd 0.516
GCCUAGACCUAAGCAUAGCTT against Prpmp5 0.228
CCGAAAAGUGAUAUGCUUUTT against Akap4 -0.645
GGAUCUUCAGGUUCUGAUGTT against Mmadhc 1.18
GGAGAUCCUCAUUUGUGUGTT against Ftmt -1.99
CCAAAAACCACAGUCCACCTT against Dnajb12 0.472
GGUCAGAAAGACAAUCGCCTT against Nptx1 -0.182
GAGCCAAAUUAGCAGCUUGTT against Rln3 -0.873
GGAGAUAGGAGCGAUUGCUTT against Dpys -1.07
GGCAAUCUGGAACAACAUATT against Ano6 -1.59
CGAGAAAGCAUAUAUAAUGTT against Mapk1ip1l 1.12
GGAUGGCUCUAUUUUUUUATT against Mab21l3 0.114
CCGUCAUCUGGAGAGAAACTT against Dtx3l 0.0937
GGCAGAAAUCCAUCAGAGATT against Rtkn2 -0.349
GCUAUUUCACCGUCAGAAUTT against Primpol 0.355
GGUAGACUCUGACUUUGACTT against Vps72 -0.676
GGACACUCAAAAACAACUGTT against Serpina3b -0.509
GGAUUCUGCAUGUUUGUACTT against Cds2 -0.403
CGGAAGUCAAUUUUGAAAATT against Il31ra -0.466
ACCUCAAGACAGUGCAAAUTT against H2bc4 -1.41
GGCCUGGACAUCUCUUCUCTT against Taf7 -1.98
GAGACUCUAUUUGAGGAUUTT against Gm5414 -0.295
GGUUCCUAGUAUUAUGUACTT against Fam136a 1.42
GCGAGAUCACUUUCCAAUCTT against Ddr2 -0.825
GCUCUUUGACCUUGGCAAATT against Mdp1 1.38
GGAGAAAUUCCCUUGCCACTT against Kbtbd12 -0.0157
CCUGCUACCUUAACUCUAATT against Tmem45a 1.19
CCCGUACAUUGAGUGCAAUTT against 6330403K07Rik 0.414
CGUAUACAAAUGUCCGGUATT against Itga11 0.485

4 records picked at random from the list so far:
z-score, inactive:
GCACCAGGCCACAAUUAAUTT against Luzp2 0.279
GCCUAGACCUAAGCAUAGCTT against Prpmp5 0.228
ACCUCAAGACAGUGCAAAUTT against H2bc4 -1.41
CGAUCCUUCUGUCCUGGAUTT against Tmc8 1.94

Reprinted from the entries so far for reference:
z-score, inactive:
GGAGAAAGGCAUCUUCAAATT against Spdef 0.0302
GGACUGUGUGCAACUGAACTT against Camkk1 -1.42
